PubChem BioAssay AID1224826 | NIAID – 2016
Shown is a random part of about 17,000 reagents. About 1,110 of them (6.6%) were called active. 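Active means lowered or raised reporter signal; replicate intensities are raw and not normalised per plate.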 A number with no mark means an inactive call.

Screen: 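Knock-downs that raise or lower Tnf reporter signal after endotoxin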 (primary screen)
System: RAW264.7 G9 macrophages from mouse bearing reporters for p65 (GFP) and the Tnf promoter (mCherry)
Reagent: siRNA pool against mouse genes, 100 nM
Time to read-out: 16 h of LPS stimulation, after 2 days of siRNA transfection
Challenge: bacterial lipopolysaccharide (Salmonella minnesota R595), 10 ng/ml
Read-out: 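Imaged Tnf reporter mCherry in nuclei, minus background, normalised per plate to the median and expressed as robust z-scores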
Direction: Tnf reporter robust z-score: higher = stronger Tnf promoter reporter signal after LPS; Tnf reporter intensity: higher = stronger Tnf promoter reporter signal
Call rule: 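Called active when robust z-score is at most -1.3, matching the median of the Tlr4 knock-down control, or over 3; control wells and wells with under 50 cells never active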
Meaning of the calls: active = Tnf reporter clearly lowered or raised; inactive = no clear change in Tnf reporter

| gene symbol | PubChem SID | Tnf reporter robust z-score | fewer than 50 cells in well | Tnf reporter intensity, replicate 1 | Tnf reporter intensity, replicate 2 |
| --- | --- | --- | --- | --- | --- |
| Atad1 (ATPase family, AAA domain containing 1) | SID315473346 | -0.91 | enough cells in well | 117 | 116 |
| Plod1 (procollagen-lysine, 2-oxoglutarate 5-dioxygenase 1) | SID315468592 | -0.21 | enough cells in well | 230 | 178 |
| Or5p76 (olfactory receptor family 5 subfamily P member 76) | SID315480384 | 0.04 | enough cells in well | 60 | 119 |
| Fibcd1 (fibrinogen C domain containing 1) | SID315476157 | 0.26 | enough cells in well | 241 | 188 |
| Lrrc58 (leucine rich repeat containing 58) | SID315481249 | 0.2 | enough cells in well | 138 | 174 |
| Gnai3 (G protein subunit alpha i3) | SID315466944 | -0.22 | enough cells in well | 157 | 348 |
| Ctns (cystinosis, nephropathic) | SID315475818 | 0.27 | enough cells in well | 237 | 240 |
| Slc25a29 | SID315477879 | 0.18 | enough cells in well | 108 | 59.5 |
| Blvra (biliverdin reductase A) | SID315476844 | -0.24 | enough cells in well | 105 | 188 |
| Cd163 (CD163 antigen) | SID315475911 | -1.27 | enough cells in well | 142 | 75.1 |
| Cyp2a5 (cytochrome P450, family 2, subfamily a, polypeptide 5) | SID315466224 | 0.29 | enough cells in well | 251 | 230 |
| Epdr1 (ependymin related 1) | SID315476068 | -0.5 | enough cells in well | 81.4 | 88.7 |
| Epdr1 (ependymin related 1) | SID315476480 | 0.26 | enough cells in well | 196 | 169 |
| Tet3 (tet methylcytosine dioxygenase 3) | SID315477453 | 0.3 | enough cells in well | 204 | 255 |
| Piwil1 (piwi-like RNA-mediated gene silencing 1) | SID315471807 | 1.38 | enough cells in well | 357 | 285 |
| Mboat2 (membrane bound O-acyltransferase domain containing 2) | SID315472904 | – | fewer than 50 cells per well; well left out of calls | 208 | 61.4 |
| Nudt16l1 (nudix hydrolase 16 like 1) | SID315472710 | 1.63 | enough cells in well | 369 | 130 |
| Tas2r114 (taste receptor, type 2, member 114) | SID315481859 | – | fewer than 50 cells per well; well left out of calls | 61.8 | 54.3 |

Looked up above:
Mboat2 (membrane bound O-acyltransferase domain containing 2) [SID315472904], fewer than 50 cells in well → fewer than 50 cells per well; well left out of calls
Under “Tnf reporter intensity, replicate 2”, Slc25a29 [SID315477879] shows 59.5
Under “Tnf reporter robust z-score”, Atad1 (ATPase family, AAA domain containing 1) [SID315473346] shows -0.91
Result of Tet3 (tet methylcytosine dioxygenase 3) [SID315477453] in “fewer than 50 cells in well”: enough cells in well
Result of Blvra (biliverdin reductase A) [SID315476844] under “Tnf reporter robust z-score”: -0.24
Result for Epdr1 (ependymin related 1) [SID315476068] under “fewer than 50 cells in well”: enough cells in well

The listing continues.
| gene symbol | PubChem SID | Tnf reporter robust z-score | fewer than 50 cells in well | Tnf reporter intensity, replicate 1 | Tnf reporter intensity, replicate 2 |
| --- | --- | --- | --- | --- | --- |
| Or8b55 (olfactory receptor family 8 subfamily B member 55) | SID315480425 | -0.75 | enough cells in well | 110 | 99.5 |
| Mtg1 (mitochondrial ribosome-associated GTPase 1) | SID315477742 | 0.87 | enough cells in well | 306 | 221 |
| Mapre3 (microtubule-associated protein, RP/EB family, member 3) | SID315476246 | -0.63 | enough cells in well | 178 | 186 |
| Hif3a (hypoxia inducible factor 3, alpha subunit) | SID315471068 | -0.63 | enough cells in well | 174 | 160 |
| Dcp1a (decapping mRNA 1A) | SID315475218 | 0.03 | enough cells in well | 257 | 216 |
| Hoxa7 (homeobox A7) | SID315467256 | 0.12 | enough cells in well | 242 | 201 |
| Utp23 (UTP23 small subunit processome component) | SID315475587 | 0.27 | enough cells in well | 268 | 125 |
| Relb (Relb proto-oncogene, NFKB subunit) | SID315468941 | -1.23 | enough cells in well | 190 | 112 |
| Fbxw19 (F-box and WD-40 domain protein 19) | SID315479279 | 0.59 | enough cells in well | 228 | 135 |
| Klra10 (killer cell lectin-like receptor subfamily A, member 10) | SID315467660 | 0.66 | enough cells in well | 271 | 199 |
| Bcl9l (B cell CLL/lymphoma 9-like) | SID315475692 | – | fewer than 50 cells per well; well left out of calls | 7.73 | 70.7 |
| Jsrp1 (junctional sarcoplasmic reticulum protein 1) | SID315474376 | – | fewer than 50 cells per well; well left out of calls | 120 | 57.1 |
| Or52w1 (olfactory receptor family 52 subfamily W member 1) | SID315480040 | 3.2 (active) | enough cells in well | 150 | 315 |
| Defb14 (defensin beta 14) | SID315479755 | 0.45 | enough cells in well | 266 | 145 |
| Nrip1 (nuclear receptor interacting protein 1) | SID315480810 | -0.33 | enough cells in well | 223 | 154 |
| Nfe2l1 (nuclear factor, erythroid derived 2,-like 1) | SID315468146 | -0.08 | enough cells in well | 261 | 196 |
| Ctdsp2 (CTD small phosphatase 2) | SID315470968 | -0.29 | enough cells in well | 183 | 143 |
| Gmpr2 (guanosine monophosphate reductase 2) | SID315476491 | -0.03 | enough cells in well | 213 | 206 |
| Acbd6 (acyl-Coenzyme A binding domain containing 6) | SID315474561 | 1.63 | enough cells in well | 378 | 234 |
| Fcrl1 (Fc receptor-like 1) | SID315478707 | -0.7 | enough cells in well | 133 | 107 |
| Snx20 (sorting nexin 20) | SID315474261 | 0.15 | enough cells in well | 191 | 196 |
| Hint1 (histidine triad nucleotide binding protein 1) | SID315467206 | 0.11 | enough cells in well | 239 | 203 |
